# Assay results reported in the supplement of paper PMC12819154, “High-throughput peptide-centric local stability assay extends protein–ligand identification to membrane proteins, tissues and bacteria” (Nature Structural & Molecular Biology, 2025).
# Sequences of proteins named here, by UniProt entry; tags and fusion partners are left off. A change or cut given only in a name is not applied to a line headed by its entry.
# UniProt P14175: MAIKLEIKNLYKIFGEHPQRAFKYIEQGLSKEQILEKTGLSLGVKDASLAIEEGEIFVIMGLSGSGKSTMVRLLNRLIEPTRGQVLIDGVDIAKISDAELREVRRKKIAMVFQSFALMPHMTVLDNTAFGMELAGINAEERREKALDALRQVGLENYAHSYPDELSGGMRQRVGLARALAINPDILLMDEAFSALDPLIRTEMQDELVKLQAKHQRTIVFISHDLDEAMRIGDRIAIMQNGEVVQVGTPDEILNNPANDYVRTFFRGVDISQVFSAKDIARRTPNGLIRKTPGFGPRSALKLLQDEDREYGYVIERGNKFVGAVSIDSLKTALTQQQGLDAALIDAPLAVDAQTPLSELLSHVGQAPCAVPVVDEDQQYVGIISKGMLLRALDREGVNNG
# UniProt P12999: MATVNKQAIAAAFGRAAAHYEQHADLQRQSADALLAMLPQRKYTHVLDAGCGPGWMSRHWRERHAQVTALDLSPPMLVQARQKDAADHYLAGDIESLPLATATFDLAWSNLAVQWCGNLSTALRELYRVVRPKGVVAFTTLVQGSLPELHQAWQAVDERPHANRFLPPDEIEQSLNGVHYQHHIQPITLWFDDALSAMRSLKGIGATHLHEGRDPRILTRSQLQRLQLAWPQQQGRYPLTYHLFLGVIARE
# UniProt P16926: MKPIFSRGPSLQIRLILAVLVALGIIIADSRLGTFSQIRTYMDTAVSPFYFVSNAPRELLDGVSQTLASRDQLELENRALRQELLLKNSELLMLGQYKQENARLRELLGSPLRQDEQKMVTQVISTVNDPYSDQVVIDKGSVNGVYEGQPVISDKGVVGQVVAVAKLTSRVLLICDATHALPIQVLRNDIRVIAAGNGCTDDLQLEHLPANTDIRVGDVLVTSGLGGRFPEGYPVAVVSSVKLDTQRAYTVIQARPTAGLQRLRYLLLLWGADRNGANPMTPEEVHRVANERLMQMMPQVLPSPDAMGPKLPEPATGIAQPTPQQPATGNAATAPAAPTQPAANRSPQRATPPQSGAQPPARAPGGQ
# UniProt P22188: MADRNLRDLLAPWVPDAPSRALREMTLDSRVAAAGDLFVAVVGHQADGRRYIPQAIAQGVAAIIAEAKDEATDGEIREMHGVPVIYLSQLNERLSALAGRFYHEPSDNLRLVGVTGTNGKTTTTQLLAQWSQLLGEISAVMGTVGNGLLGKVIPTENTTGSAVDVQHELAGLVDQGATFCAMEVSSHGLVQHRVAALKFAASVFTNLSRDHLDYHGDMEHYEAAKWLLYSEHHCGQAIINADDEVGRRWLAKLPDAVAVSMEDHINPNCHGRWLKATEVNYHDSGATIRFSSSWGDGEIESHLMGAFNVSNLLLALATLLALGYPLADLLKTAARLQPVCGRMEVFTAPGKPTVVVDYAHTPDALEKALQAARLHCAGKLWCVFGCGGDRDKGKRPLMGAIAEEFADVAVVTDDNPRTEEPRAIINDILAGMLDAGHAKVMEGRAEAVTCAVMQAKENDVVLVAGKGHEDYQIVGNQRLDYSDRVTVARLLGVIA
# UniProt P18310: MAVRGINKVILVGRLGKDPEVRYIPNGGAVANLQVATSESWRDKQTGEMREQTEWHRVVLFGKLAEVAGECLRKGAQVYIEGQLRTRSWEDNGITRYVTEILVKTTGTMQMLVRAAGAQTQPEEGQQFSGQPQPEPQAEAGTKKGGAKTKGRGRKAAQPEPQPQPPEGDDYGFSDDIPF
# UniProt P14565: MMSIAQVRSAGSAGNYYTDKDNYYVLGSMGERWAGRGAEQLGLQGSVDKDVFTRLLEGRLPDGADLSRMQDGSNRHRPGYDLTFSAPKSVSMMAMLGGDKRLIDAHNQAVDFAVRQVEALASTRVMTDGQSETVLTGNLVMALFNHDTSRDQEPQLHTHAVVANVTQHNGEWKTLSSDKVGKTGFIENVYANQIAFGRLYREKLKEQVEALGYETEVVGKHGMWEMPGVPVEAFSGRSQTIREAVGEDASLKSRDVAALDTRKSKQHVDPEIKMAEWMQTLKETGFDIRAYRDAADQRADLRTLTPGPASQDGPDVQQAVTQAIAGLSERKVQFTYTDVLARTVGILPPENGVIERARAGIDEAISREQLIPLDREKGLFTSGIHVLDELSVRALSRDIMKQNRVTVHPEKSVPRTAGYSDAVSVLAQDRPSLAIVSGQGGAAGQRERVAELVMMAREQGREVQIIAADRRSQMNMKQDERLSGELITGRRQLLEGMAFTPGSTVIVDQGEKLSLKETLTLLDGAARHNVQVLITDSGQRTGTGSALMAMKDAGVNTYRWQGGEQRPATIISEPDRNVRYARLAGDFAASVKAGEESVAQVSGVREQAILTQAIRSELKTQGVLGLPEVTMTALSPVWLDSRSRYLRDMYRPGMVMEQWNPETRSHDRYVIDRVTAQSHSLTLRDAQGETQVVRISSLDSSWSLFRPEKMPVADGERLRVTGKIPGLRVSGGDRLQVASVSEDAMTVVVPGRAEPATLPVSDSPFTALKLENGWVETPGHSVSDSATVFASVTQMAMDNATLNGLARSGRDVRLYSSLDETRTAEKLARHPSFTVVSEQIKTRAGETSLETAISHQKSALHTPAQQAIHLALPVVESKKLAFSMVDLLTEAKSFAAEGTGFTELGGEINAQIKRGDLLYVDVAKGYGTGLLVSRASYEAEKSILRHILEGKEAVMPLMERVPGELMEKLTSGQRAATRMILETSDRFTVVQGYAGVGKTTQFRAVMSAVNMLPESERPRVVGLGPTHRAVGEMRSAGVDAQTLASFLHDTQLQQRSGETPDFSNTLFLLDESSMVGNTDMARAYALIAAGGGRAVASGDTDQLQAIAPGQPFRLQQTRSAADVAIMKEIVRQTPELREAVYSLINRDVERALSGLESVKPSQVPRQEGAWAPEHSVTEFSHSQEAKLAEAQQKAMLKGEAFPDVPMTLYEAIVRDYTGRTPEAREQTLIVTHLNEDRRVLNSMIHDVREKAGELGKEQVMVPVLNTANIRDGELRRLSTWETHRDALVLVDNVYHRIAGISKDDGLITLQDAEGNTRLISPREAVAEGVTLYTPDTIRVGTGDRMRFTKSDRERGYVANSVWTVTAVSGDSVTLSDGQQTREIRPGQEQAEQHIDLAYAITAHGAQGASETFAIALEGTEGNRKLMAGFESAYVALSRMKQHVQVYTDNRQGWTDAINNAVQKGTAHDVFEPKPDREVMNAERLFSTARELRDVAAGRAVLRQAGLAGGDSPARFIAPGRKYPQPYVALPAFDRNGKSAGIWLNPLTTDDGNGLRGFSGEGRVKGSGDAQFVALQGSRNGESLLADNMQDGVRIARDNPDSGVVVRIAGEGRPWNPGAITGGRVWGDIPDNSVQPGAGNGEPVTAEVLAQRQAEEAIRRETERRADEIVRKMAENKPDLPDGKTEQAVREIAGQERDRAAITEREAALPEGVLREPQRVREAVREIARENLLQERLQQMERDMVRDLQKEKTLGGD
# UniProt P0C0L2: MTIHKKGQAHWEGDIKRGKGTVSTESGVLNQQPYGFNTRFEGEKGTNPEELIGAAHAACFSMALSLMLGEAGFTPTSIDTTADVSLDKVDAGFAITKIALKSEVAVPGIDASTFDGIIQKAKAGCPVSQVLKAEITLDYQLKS
# UniProt P10346: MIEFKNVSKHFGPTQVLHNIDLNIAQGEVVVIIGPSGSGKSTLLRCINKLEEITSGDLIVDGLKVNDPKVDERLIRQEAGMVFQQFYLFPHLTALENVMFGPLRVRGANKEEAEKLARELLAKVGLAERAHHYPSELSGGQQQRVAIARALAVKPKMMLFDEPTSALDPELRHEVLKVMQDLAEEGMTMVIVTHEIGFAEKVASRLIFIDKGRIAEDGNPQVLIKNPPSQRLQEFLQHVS
# UniProt P0CF08: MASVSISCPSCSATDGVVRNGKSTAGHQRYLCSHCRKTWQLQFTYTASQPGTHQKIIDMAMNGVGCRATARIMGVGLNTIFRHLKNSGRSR
# UniProt P12758: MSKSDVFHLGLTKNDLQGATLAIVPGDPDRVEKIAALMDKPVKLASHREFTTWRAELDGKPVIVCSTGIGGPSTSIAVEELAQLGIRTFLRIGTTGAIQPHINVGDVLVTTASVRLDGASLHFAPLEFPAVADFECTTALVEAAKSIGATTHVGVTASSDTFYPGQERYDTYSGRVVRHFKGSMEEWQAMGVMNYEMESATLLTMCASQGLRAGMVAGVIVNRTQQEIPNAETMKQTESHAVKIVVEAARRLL
# UniProt P18390: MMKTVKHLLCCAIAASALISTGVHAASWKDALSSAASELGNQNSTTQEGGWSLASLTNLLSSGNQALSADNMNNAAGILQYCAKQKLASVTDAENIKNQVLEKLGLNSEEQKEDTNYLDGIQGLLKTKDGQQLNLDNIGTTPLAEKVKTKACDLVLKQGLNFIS
# UniProt P23878: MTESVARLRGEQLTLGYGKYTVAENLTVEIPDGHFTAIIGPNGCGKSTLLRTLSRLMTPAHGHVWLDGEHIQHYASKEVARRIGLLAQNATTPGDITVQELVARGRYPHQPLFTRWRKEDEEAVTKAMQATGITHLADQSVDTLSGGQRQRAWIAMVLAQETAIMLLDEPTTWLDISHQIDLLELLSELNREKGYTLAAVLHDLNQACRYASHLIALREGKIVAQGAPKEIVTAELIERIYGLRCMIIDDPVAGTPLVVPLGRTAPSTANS
# UniProt P11557: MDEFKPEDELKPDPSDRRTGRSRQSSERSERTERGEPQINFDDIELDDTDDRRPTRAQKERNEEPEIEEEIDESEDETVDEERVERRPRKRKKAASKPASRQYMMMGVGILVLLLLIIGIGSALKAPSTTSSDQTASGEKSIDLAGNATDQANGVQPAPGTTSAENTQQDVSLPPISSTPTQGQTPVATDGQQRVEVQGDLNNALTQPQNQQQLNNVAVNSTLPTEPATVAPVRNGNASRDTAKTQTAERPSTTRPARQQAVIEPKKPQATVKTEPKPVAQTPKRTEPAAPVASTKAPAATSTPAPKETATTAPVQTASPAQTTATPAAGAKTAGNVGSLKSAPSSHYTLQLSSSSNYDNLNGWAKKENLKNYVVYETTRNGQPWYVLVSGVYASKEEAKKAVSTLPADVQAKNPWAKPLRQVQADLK
# UniProt P19318: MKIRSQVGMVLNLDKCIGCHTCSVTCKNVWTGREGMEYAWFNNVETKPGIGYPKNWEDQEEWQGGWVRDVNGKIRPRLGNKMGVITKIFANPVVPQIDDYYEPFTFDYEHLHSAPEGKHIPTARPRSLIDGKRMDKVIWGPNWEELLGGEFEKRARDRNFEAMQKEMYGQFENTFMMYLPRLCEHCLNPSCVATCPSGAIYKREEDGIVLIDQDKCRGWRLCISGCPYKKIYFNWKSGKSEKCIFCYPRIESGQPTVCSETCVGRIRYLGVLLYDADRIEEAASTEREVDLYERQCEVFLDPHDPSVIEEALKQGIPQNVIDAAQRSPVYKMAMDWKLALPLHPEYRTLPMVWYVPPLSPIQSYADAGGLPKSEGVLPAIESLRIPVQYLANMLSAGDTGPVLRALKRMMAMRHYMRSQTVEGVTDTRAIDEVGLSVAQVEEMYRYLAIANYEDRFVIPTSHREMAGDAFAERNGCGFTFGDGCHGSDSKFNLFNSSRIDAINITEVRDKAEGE
# UniProt P19930: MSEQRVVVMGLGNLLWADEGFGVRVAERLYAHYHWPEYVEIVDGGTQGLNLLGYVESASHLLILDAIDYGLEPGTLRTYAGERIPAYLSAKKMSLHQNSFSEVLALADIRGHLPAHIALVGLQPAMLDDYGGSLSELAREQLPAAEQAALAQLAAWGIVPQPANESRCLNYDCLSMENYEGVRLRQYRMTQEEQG
# UniProt P22106: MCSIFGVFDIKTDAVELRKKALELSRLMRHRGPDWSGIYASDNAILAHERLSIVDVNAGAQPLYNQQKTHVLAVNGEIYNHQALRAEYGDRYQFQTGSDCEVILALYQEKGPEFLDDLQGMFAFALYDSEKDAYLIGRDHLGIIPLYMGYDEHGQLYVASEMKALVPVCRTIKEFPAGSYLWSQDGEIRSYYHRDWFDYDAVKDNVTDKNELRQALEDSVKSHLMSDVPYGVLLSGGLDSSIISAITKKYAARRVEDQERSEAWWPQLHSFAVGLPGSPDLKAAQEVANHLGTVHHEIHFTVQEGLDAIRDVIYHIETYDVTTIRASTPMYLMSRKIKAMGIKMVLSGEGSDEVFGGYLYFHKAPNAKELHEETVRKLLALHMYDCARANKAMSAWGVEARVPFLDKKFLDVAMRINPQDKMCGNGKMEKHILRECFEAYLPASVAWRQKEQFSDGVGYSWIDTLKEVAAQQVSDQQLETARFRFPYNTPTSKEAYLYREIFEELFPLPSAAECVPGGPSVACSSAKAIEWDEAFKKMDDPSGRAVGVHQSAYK
# UniProt P22939: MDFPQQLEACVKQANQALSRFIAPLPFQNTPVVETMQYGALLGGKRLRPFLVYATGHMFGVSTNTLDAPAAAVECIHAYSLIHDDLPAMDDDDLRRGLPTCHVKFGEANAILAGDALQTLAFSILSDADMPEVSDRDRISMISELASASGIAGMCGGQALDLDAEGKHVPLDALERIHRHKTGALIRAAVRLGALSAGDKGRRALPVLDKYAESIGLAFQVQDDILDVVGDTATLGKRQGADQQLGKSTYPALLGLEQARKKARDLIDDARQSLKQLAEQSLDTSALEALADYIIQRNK
# Some of the results follow. Most values lie at the level of the controls, where differences are scatter.
# Compound: CC1(C)S[C@@H]2[C@H](NC(=O)[C@H](N)c3ccccc3)C(=O)N2[C@H]1C(=O)O [ampicillin]
# Assay: log2 fold change of tryptic peptide abundance, ligand vs vehicle (limited proteolysis) (log2 ratio); higher = more trypsin-susceptible (destabilized)
# Settings: ligand concentration: 10 uM; sample: E. coli crude lysate
row,Target,log2 fold change
1,"UniProt P21507 (peptide sequence: MLDMGFAQDIEHIAGETR, peptide start residue: 162)",0.162
2,"UniProt P18392 (peptide sequence: FTAERAGK, peptide start residue: 29)",-0.11
3,"UniProt P14175 (peptide sequence: GQVLIDGVDIAK, peptide start residue: 83)",-0.244
4,"UniProt P12995 (peptide sequence: DAEMVADVR, peptide start residue: 352)",0.308
5,"UniProt P12999 (peptide sequence: YTHVLDAGCGPGWMSR, peptide start residue: 43)",0.614
6,"UniProt P16926 (peptide sequence: ELLGSPLR, peptide start residue: 106)",0.44
7,"UniProt P11349 (peptide sequence: CIGCHTCSVTCKNVWTSR, peptide start residue: 16)",-0.592
8,"UniProt P10121 (peptide sequence: GFFSWLGFGQK, peptide start residue: 8)",-0.5
9,"UniProt P22188 (peptide sequence: LDYSDRVTVAR, peptide start residue: 479)",-0.0924
10,"UniProt P17410 (peptide sequence: SQEYLTR, peptide start residue: 202)",-0.0626
11,"UniProt P18310 (peptide sequence: LGKDPEVR, peptide start residue: 15)",-0.312
12,"UniProt P14565 (peptide sequence: VPGELMEK, peptide start residue: 961)",-0.0796
13,"UniProt P0C0L2 (peptide sequence: GQAHWEGDIK, peptide start residue: 7)",-0.464
14,"UniProt P22731 (peptide sequence: TTLLGTLCGDPRATSGR, peptide start residue: 45)",-0.307
15,"UniProt P10346 (peptide sequence: GANKEEAEK, peptide start residue: 107)",1.2
16,"UniProt P23874 (peptide sequence: MIPAALDNVK, peptide start residue: 398)",0.262
17,"UniProt P23865 (peptide sequence: KTELGDELR, peptide start residue: 97)",0.291

# Pulled one by one from the list above (2):
row,Target,log2 fold change
12,"UniProt P14565 (peptide sequence: VPGELMEK, peptide start residue: 961)",-0.0796
7,"UniProt P11349 (peptide sequence: CIGCHTCSVTCKNVWTSR, peptide start residue: 16)",-0.592

# Later entries:

row,Target,log2 fold change
1,"UniProt P0CF08 (peptide sequence: IMGVGLNTIFR, peptide start residue: 72)",0.103
2,"UniProt P23721 (peptide sequence: YGVIYAGAQK, peptide start residue: 189)",0.182
3,"UniProt P12758 (peptide sequence: QTESHAVK, peptide start residue: 236)",0.422
4,"UniProt P18390 (peptide sequence: QKLASVTDAENIKNQVLEK, peptide start residue: 85)",-0.16
5,"UniProt P20099 (peptide sequence: KGFLASPENPQGIR, peptide start residue: 64)",-0.491
6,"UniProt P14081 (peptide sequence: DALLFPEK, peptide start residue: 607)",-0.322
7,"UniProt P15640 (peptide sequence: VIEFNCR, peptide start residue: 284)",-0.338
8,"UniProt P23878 (peptide sequence: WRKEDEEAVTK, peptide start residue: 116)",0.594
9,"UniProt P10443 (peptide sequence: AALMNSLGDALK, peptide start residue: 896)",0.214
10,"UniProt P16700 (peptide sequence: THFTSGGELDKLLAAGRN, peptide start residue: 321)",0.428
11,"UniProt P11557 (peptide sequence: GEPQINFDDIELDDTDDRRPTR, peptide start residue: 35)",0.184
12,"UniProt P19318 (peptide sequence: FNLFNSSR, peptide start residue: 491)",-0.327
13,"UniProt P13458 (peptide sequence: ARNQPDGNLQVPR, peptide start residue: 101)",-0.421
14,"UniProt P19930 (peptide sequence: IPAYLSAK, peptide start residue: 84)",-0.0149
15,"UniProt P22106 (peptide sequence: FRFPYNTPTSK, peptide start residue: 483)",0.0935
16,"UniProt P22939 (peptide sequence: HVPLDALER, peptide start residue: 168)",0.104
17,"UniProt P15032 (peptide sequence: DGLQALHIAR, peptide start residue: 147)",0.919
